Amino acid sequences for entries named in this document (tags omitted). A change or cut given only in a name is not applied to a line headed by its entry.
UniProt Q8Y3Z3: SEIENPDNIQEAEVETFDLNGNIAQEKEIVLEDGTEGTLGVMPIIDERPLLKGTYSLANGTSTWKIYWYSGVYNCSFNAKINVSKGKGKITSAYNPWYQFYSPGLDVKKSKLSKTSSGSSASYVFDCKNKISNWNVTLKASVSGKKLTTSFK
UniProt O95786: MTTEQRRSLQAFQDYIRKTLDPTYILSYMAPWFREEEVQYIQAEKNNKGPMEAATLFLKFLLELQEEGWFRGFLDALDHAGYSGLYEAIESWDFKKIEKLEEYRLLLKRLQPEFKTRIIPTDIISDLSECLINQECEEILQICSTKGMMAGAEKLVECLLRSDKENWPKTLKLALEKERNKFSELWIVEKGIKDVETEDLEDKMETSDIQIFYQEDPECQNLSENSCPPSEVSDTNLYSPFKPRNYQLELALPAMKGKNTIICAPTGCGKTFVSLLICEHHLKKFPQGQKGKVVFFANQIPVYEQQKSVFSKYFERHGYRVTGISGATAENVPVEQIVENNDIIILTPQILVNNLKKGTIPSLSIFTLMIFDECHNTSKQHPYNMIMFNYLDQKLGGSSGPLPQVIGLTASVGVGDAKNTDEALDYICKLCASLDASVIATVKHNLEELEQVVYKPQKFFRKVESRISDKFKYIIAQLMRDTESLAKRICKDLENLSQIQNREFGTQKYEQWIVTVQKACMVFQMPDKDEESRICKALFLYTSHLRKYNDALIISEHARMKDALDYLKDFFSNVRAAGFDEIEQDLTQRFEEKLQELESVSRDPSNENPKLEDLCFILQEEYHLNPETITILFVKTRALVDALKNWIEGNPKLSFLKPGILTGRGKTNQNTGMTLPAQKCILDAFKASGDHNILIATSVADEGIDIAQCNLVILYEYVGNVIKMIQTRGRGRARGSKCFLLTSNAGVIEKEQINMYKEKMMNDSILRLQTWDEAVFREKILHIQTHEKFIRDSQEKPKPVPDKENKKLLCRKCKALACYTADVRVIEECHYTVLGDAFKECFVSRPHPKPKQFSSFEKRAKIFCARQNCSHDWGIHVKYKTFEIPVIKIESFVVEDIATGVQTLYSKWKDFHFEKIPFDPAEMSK

According to PMC6907008:

Biological target: C-terminally FLAG-tagged Zea (Lmo2686) overexpressed in L. monocytogenes (L. monocytogenes) (UniProt Q8Y3Z3)
Assay: pull-down; ZeaFLAG immunopurified from L. monocytogenes culture medium on M2 Flag magnetic beads, incubated overnight at 4°C with lysate of HEK293 cells stably expressing Strep-RIG-I; with or without RNaseA (100 μg/mL); eluted with 3xFlag peptide; immunoblot; only the target purified

Strep-tagged RIG-I stably expressed in HEK293 cells (from UniProt O95786 1-925)
binding: binds

These are yes or no findings as the source states them, for the method shown. Binding seen in cells or lysates may run through a third protein. A result given as binding can be weak or reduced; the word gives no strength.
